Assay results from patent US9907857B2, “Peptide having cell membrane penetrating activity” (EWHA UNIVERSITY-INDUSTRY COLLABORATION FOUNDATION, priority 2006, dated 2018).
Some results were stated once for a whole list of compounds, not compound by compound. Some ranges recur; such a range may be that of the whole group of compounds.

What was measured:
HeLa cells [1] = assay: Intracellular translocation of alanine substituents of TCTP(1-9), microplate fluorescence reader; assay type: cell-based; conditions: 2 hours, sensitivity 75 (FIG. 5)
Method: N-terminus of each peptide was labeled with fluorescence dye, rhodamine and C-terminus was protected. Peptide purity (>95%) was determined by HPLC. Synthesis of peptides of present invention was requested to PEPTRON, Inc.
(§1) HeLa cell line was propagated in DMEM supplemented with 10% FBS and 100 units/mL penicillin-streptomycin. Cells were grown in a 5% CO2 incubator at 37° C.
HeLa cells were cultured in 48-well plate until they were 70˜80% grown up before a day of the experiment. […]
After the incubation, the cells were washed in cool PBS three times and immediately measured by a microplate fluorescence reader at emission 530 nm and excitation 590 nm for a measurement of rhodamine of intracellular uptake marker. The sensitivity of reader was set at 100 as a basic, but was lowered to 75 if fluorescent signals were strong. […]
Meanwhile, when the sensitivity of KC4 plate reader was set down to 75, we could not analyze the result of cell penetrating activity at relatively low concentration of 1 or 10 μM, so sensitivity of reader was fixed at 100 (FIG. 6). At this time, because fluorescence intensity at 100 μM was very strong, we could not express in a same graph.

HeLa cells [2] = assay: Cell penetrating activity of FITC-labelled mutant peptides, mean fluorescence intensity by FACS; assay type: cell-based; conditions: high concentration
Method: N-terminus of each peptide was labeled with fluorescence dye, FITC and C-terminus was protected. Peptide purity (>95%) was determined by HPLC. Synthesis of the peptides of the present invention was requested to PEPTRON, Inc.
as §1
HeLa cells were cultured in 6-well plate until they were 70˜80% grown up before a day of the experiment. The cells were washed with DMEM of 37° C. twice, and TCTP-derived peptides synthesized in Example 5-1) were treated to the culture medium in a dose dependent manner (0, 1, 10, 100 μM), then the cells was incubated for 2 hours in an CO2 incubator at 37° C.,
After the incubation, the cells were washed in cool PBS two times and treated with 1 mg/ml trypsin for 15 min at 37° C. to digest peptides attached on cell membrane and washed in PBS twice again. Then, the cells were analyzed by FACS at emission 510 nm and excitation 530 nm for a measurement of FITC of intracellular uptake marker (FIGS. 7, 8 and 9). Intracellular translocation efficiency of mutant peptides, TCTP-CPP#1-35(SEQ ID Nos.: 20-54) was compared to wild type(WT), TCTP(1-10)(SEQ ID No.: 1) and control peptide, TAT(48-57).

Sequence: MAIYRDLIS (mutant peptide based on human sequence; (1)..(9) TCTP(1-9)I2A) [SEQ ID No.: 9]
- decline in uptake, fluorescence intensity of TCTP (1-9) at 100 μM set to 100% (HeLa cells [1]): 80-90%

Sequence: MIAYRDLIS (mutant peptide based on human sequence; (1)..(9) TCTP(1-9)I3A) [SEQ ID No.: 10]
- decline in uptake, fluorescence intensity of TCTP (1-9) at 100 μM set to 100% (HeLa cells [1]): 80-90%

Sequence: MIIRRDLISE (mutant peptide based on human sequence; (1)..(10) TCTP-CPP#9) [SEQ ID No.: 28]
- decrease of cell penetrating activity compared with WT (HeLa cells [2]): 4-5 times

Sequence: MIIYARRAEE (mutant peptide based on human sequence; (1)..(10) TCTP-CPP#11) [SEQ ID No.: 30]
- decrease of cell penetrating activity compared with WT (HeLa cells [2]): 4-5 times
